Test results from publication PMC8981563 (RSC Advances, 2022).

Key:
in vivo = conditions: male, C57BL/6, mouse, po, 10 mg/kg
[1] = rats; cited from earlier work

AUC (in vivo): 1.5 ± 0.087 µg·h/mL
AUC(0-t) (in vivo): 1.5 µg·h/mL
half-life (in vivo): 37.2 ± 8.4 min
SMILES: Cc1ccc(-c2ccc(F)cc2COc2ccc(CCC(=O)O)cc2)cc1 [TUG-891]
plasma clearance [1]: high plasma clearance
